# Measured values from patent publication US10792857B2, “Polymeric microneedles and rapid additive manufacturing of the same” (The University of North Carolina at Chapel Hill, priority 2015, dated 2020).
# At least one structure is not confirmed: it was looked up by name or label, or the drawing left a doubt.
# Test system: Primary murine macrophages
# Assay: R-848 bioactivity after release from PAA cylinders: IL-6 release by macrophages (ELISA)
# Format: cell-based
# Conditions: supernatant of dissolved PAA cylinders, resin 0.02 wt % R-848, 8 hours stimulation
smiles,measurement,value
"CCOCc1nc2c(N)nc3ccccc3c2n1CC(C)(C)O [R-848, Resiquimod]",R-848 bio-activity (IL-6 release by macrophages),readily detectable
